Results deposited as PubChem BioAssay AID1259308 (NCATS, 2017)
Shown is one part, drawn at random, of about 59,000 reagents. Of all reagents, about 1,510 (2.6%) were called active. 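Calls use total luciferase alone and ignore viability, so some active siRNAs may act by altering cell number.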 A number with no mark means an inactive call. Reagents against one gene are numbered here. Not all columns of the deposit are shown.

- Screen: 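Genes whose loss raises luciferase production in HEK293 cells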 (primary screen)
- System: human HEK293 embryonic kidney cells stably expressing firefly luciferase (HEK-CMV-Luc2-Hygro)
- Reagent: single siRNA against human genes, 0.8 pmol siRNA per well
- Time to read-out: 72 h
- Measured: 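Reporter luminescence and viable-cell signal on separate replicate plates, given as percent of non-targeting control and median/MAD z-scores, plus per-cell luciferase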
- Scale: total luciferase, z-score and total luciferase, % of control: higher = more reporter protein produced; luciferase per cell, z-score: higher = more reporter output per viable cell
- Rule for the call: 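Active when the median/MAD z-score for overall luciferase is greater than 3; a gene was taken forward for validation with new siRNAs if at least two of its three siRNAs passed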
- Calls: active = raised luciferase; inactive = no rise

gene knocked down | reagent no. | total luciferase, z-score | total luciferase, % of control | luciferase per cell, z-score
FAM50A | 1 | 0.242 | 86.7 | -0.338
FAM50A | 2 | 1.29 | 108 | 1.45
FAM50A | 3 | -0.282 | 76.3 | -0.195
CALCA | 1 | 0.118 | 84.2 | 0.64
CALCA | 2 | 0.733 | 96.5 | -0.135
CALCA | 3 | 1.93 | 120 | 0.634
INSM1 | 1 | 0.195 | 85.8 | 0.337
INSM1 | 2 | 1.42 | 110 | 0.907
INSM1 | 3 | -0.0584 | 80.7 | -0.488
AGTR1 | 1 | 1.31 | 108 | 1.25
AGTR1 | 2 | 1.04 | 103 | 0.106
AGTR1 | 3 | -0.238 | 77.2 | -0.753
DPYSL3 | 1 | 1.73 | 116 | 1.39
DPYSL3 | 2 | -0.858 | 64.8 | -0.869
DPYSL3 | 3 | -0.693 | 68.1 | -0.492
KCNC3 | 1 | 1.11 | 104 | 1.15
KCNC3 | 2 | 0.0517 | 82.9 | 0.0791
KCNC3 | 3 | 0.254 | 86.9 | 0.769
SIGLEC12 | 1 | -0.276 | 76.4 | -0.307
SIGLEC12 | 2 | -1.32 | 55.5 | -0.861
SIGLEC12 | 3 | -0.783 | 66.3 | -0.8
SLC25A36 | 1 | 0.836 | 98.5 | 0.763
SLC25A36 | 2 | -1.9 | 44.2 | -1.6
SLC25A36 | 3 | 0.994 | 102 | 0.531
FIGNL1 | 1 | 0.684 | 95.5 | -0.0713
FIGNL1 | 2 | -0.274 | 76.4 | -0.715
FIGNL1 | 3 | -0.133 | 79.2 | -0.178
ZNF782 | 1 | -0.296 | 76 | 0.621
ZNF782 | 2 | 4.6 (active) | 173 | 2.54
ZNF782 | 3 | 2.12 | 124 | 1.09
GPR39 | 1 | 0.182 | 85.5 | -0.414
GPR39 | 2 | -0.231 | 77.3 | -0.141
GPR39 | 3 | -0.686 | 68.2 | 0.581
SSH1 | 1 | 0.471 | 91.3 | -0.29
SSH1 | 2 | 0.124 | 84.4 | -0.0884
SSH1 | 3 | -0.758 | 66.8 | -1.9
SNAP91 | 1 | -0.472 | 72.5 | -1.16
SNAP91 | 2 | -2.84 | 25.3 | -4.52
SNAP91 | 3 | 0.154 | 85 | -0.732

3 entries from above, reformatted.
SNAP91 #1
- total luciferase, z-score: -0.472
- total luciferase, % of control: 72.5
- luciferase per cell, z-score: -1.16

SNAP91 #2
- total luciferase, z-score: -2.84
- total luciferase, % of control: 25.3
- luciferase per cell, z-score: -4.52

SNAP91 #3
- total luciferase, z-score: 0.154
- total luciferase, % of control: 85
- luciferase per cell, z-score: -0.732
